Measured values as given in patent US10613104B2, “Assay to determine anticoagulants in blood or blood plasma” (ZAFENA AB, priority 2014, dated 2020).

Test system: prothrombin time (PT) of control plasma NKP
Assay: 20 μL and 5 μL PT methods with reagent P161 at various added CaCl2, NKP + 500 μg/L apixaban
Format: biochemical
Details: level at which ratio reaches 1.104 (2*SD)
Protocol: With each reagent three samples were analyzed by the two PT methods of the anticoagulant assay, the 20 μL-method and the 5 μL-method. Two of the samples were reference samples, the control plasmas NKP and ZAP, with established INR values of 1.00 and 2.50, respectively.

COc1ccc(-n2nc(C(N)=O)c3c2C(=O)N(c2ccc(N4CCCCC4=O)cc2)CC3)cc1 [apixaban]
apixaban detection limit (reagent P161, added Ca2+ 16 mM): 38 µg/L | apixaban detection limit (reagent P161, added Ca2+ 24 mM): 39 µg/L | apixaban detection limit (reagent P161, added Ca2+ 32 mM): 41 µg/L
